Test results published in the supplement of paper PMC7666118.
This is one part of the list.

Protein sequences, listed by entry. Tags and fused reporters are not part of them. Lines headed by an entry give the natural chain unless they say otherwise; changes in a name come on top.
UniProt Q9BWL3: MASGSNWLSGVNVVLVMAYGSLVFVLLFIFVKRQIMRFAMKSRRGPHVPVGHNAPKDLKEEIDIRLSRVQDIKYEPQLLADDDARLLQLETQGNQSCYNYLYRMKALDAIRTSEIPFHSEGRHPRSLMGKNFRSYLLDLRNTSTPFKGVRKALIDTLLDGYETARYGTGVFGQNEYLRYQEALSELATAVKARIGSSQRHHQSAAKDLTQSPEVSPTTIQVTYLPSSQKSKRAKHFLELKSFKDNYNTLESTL
UniProt Q5UCC4: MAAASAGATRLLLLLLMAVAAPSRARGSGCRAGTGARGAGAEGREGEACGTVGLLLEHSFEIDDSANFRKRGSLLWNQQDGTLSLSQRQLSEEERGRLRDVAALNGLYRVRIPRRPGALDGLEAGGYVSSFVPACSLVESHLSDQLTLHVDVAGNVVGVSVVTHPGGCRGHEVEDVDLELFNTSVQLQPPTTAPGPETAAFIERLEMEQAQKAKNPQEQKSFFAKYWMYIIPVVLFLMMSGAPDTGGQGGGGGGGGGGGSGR
UniProt Q8N9R8: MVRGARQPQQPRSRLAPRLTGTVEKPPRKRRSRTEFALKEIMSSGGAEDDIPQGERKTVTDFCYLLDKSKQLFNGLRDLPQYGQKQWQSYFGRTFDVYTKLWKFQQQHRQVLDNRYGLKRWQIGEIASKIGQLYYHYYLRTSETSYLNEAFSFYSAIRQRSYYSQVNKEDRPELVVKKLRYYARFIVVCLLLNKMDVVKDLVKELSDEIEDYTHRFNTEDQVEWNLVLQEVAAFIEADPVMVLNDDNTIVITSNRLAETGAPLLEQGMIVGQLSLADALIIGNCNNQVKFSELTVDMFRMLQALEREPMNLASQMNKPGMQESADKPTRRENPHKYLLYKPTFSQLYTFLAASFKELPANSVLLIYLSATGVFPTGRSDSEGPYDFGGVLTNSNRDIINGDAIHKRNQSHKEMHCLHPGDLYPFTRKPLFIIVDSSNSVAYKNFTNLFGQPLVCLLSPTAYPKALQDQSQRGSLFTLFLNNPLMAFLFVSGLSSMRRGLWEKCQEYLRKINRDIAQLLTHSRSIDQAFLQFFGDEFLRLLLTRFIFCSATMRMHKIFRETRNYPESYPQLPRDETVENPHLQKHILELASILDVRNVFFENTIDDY
UniProt A8MVS5: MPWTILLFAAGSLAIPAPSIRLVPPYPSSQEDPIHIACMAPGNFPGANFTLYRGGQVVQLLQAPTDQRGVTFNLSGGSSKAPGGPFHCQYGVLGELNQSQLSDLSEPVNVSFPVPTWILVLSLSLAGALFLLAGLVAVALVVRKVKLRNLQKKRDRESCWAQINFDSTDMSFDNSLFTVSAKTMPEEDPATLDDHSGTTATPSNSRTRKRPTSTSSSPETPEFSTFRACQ
UniProt Q9Y376: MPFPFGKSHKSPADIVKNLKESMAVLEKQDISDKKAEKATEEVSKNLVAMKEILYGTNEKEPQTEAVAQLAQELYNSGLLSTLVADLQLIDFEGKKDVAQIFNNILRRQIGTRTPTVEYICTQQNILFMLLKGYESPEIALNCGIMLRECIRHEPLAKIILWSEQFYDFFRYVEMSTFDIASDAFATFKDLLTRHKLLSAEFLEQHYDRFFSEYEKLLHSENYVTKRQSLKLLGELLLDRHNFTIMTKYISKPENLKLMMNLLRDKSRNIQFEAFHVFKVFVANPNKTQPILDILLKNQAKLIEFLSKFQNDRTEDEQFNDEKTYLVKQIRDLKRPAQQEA
UniProt Q9H257: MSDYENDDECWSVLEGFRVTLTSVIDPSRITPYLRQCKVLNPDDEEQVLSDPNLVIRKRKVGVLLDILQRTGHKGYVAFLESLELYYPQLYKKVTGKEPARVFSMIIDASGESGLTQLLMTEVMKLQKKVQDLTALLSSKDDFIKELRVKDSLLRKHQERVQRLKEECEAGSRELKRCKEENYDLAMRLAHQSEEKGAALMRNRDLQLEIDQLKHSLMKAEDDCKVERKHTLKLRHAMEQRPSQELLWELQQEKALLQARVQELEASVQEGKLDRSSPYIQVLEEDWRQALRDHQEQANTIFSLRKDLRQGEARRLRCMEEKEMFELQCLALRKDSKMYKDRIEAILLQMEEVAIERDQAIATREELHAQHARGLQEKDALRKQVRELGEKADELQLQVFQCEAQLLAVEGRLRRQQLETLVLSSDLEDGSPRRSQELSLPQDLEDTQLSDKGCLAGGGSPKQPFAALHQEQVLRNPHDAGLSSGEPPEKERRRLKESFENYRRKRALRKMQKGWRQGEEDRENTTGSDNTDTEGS
UniProt P27824: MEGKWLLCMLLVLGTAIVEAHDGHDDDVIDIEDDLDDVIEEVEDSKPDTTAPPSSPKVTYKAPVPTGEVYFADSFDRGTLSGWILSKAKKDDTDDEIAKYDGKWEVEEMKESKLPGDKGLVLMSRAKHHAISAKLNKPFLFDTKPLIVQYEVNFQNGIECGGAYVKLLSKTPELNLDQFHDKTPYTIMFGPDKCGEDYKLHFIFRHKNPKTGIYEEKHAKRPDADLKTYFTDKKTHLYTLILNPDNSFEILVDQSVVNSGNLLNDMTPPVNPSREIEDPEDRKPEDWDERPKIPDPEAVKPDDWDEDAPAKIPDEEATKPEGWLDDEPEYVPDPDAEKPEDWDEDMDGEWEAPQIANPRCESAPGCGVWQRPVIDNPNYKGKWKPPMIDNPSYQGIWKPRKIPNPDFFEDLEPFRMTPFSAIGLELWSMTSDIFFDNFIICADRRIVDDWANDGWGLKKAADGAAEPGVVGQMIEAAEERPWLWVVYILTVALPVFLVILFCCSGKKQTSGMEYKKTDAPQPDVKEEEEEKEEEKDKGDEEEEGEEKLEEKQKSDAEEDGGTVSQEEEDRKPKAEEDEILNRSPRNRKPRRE
UniProt Q6PGQ7, whole entry: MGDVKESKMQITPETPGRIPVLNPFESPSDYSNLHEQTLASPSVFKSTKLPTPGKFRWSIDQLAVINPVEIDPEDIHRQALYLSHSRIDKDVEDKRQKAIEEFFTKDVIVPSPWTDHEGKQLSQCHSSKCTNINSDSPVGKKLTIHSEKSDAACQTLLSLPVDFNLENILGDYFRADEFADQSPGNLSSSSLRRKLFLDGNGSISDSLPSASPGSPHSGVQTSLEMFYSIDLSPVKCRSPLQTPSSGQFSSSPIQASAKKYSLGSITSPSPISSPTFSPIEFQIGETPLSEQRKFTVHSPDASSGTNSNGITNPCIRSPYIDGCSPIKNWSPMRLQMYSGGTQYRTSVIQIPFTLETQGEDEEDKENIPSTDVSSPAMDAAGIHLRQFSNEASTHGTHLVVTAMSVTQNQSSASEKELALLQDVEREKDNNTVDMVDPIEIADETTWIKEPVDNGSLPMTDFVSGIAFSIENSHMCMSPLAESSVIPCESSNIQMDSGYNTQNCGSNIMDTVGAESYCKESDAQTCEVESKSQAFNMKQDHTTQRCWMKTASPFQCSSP
UniProt Q9BUT9: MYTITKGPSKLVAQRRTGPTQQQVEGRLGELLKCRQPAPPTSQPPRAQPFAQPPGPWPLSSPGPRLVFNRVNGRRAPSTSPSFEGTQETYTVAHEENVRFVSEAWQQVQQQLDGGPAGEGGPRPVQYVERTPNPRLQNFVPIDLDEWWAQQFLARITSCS
UniProt Q9P0P8: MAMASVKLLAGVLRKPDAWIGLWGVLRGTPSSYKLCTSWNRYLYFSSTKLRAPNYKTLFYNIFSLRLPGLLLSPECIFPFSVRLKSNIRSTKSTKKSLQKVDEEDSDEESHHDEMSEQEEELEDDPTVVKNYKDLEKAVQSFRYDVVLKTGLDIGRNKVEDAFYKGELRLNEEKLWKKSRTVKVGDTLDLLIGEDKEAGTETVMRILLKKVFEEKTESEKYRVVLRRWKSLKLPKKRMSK
UniProt P0C0L5: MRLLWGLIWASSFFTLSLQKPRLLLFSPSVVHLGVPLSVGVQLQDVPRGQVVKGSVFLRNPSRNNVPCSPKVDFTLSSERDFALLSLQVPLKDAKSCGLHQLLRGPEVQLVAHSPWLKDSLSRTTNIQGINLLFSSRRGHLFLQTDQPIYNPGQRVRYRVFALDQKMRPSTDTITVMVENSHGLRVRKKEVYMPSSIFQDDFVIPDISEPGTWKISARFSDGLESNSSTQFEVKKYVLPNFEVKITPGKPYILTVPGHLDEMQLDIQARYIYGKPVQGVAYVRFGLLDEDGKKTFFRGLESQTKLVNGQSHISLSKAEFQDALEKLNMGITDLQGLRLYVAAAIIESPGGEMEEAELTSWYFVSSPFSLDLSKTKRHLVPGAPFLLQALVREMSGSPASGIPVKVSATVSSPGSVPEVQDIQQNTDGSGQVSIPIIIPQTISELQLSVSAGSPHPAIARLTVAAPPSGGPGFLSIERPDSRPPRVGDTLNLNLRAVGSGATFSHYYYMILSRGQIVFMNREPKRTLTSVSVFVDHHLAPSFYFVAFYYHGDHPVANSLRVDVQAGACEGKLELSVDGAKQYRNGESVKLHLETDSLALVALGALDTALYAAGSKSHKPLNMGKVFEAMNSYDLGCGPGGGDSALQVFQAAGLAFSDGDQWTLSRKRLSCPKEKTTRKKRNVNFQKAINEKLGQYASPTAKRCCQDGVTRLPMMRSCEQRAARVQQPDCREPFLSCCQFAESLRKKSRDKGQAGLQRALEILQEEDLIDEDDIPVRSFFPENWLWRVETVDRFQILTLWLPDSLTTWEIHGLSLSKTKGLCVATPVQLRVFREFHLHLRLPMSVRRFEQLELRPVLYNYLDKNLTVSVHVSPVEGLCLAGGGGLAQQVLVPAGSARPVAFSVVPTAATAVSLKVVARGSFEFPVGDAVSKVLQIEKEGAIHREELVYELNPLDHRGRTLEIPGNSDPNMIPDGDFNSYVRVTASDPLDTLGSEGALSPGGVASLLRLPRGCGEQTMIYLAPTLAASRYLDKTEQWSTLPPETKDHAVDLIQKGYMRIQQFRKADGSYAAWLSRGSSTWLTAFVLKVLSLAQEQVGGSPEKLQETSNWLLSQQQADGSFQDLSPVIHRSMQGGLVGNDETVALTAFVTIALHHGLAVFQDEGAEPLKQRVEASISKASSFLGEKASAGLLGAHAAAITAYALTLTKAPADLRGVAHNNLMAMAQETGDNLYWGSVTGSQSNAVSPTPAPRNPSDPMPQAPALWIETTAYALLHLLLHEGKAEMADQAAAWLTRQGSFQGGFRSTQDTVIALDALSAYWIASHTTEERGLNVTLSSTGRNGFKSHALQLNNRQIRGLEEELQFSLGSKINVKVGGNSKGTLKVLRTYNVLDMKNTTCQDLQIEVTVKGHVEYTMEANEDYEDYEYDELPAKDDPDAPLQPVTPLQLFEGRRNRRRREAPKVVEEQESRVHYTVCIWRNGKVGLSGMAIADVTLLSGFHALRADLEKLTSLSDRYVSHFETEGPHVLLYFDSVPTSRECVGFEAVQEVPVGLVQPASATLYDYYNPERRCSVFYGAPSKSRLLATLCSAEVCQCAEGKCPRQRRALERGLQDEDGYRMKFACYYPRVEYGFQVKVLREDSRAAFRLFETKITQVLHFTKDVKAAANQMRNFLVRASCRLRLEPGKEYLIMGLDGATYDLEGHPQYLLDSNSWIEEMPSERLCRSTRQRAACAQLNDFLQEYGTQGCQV
UniProt Q8WUR7: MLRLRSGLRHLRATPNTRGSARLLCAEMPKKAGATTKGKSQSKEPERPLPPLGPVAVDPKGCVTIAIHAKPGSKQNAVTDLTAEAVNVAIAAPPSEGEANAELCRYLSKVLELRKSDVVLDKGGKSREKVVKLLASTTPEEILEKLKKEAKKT
UniProt Q96A57: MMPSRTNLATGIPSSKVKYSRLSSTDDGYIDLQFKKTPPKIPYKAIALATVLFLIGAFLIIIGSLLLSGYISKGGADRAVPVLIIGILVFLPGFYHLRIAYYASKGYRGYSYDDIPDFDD
UniProt Q9H425: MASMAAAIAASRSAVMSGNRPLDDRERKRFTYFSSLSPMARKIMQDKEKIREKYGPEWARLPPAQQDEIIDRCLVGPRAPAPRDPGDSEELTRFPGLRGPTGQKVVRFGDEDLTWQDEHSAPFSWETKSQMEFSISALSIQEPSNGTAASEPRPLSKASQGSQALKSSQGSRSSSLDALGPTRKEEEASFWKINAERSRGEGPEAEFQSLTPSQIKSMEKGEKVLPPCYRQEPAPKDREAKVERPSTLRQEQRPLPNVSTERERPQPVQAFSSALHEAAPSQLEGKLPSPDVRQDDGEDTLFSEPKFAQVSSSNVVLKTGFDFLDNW
UniProt P27797, whole entry: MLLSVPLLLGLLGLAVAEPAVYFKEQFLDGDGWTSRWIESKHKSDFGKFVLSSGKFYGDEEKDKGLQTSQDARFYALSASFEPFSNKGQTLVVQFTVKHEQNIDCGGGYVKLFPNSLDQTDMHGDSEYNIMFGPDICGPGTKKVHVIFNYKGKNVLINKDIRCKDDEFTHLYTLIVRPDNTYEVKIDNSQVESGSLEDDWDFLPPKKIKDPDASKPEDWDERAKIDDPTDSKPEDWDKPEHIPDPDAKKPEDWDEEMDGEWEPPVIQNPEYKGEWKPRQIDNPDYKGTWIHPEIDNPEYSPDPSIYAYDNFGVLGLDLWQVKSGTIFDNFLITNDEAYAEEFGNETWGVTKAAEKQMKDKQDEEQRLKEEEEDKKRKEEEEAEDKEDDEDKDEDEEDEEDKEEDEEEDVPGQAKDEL

The targets below were run with COc1ccc(Cn2ccc3ccc(C(=O)NO)cc32)cc1 (assay: dose-dependent thermal stabilisation call (2D-TPP, DLPTP, 10% FDR) (binary (1 = stabilised)); higher = stabilised by the compound). Settings: system: HL-60 intact cells; concentration range 0.04-10 µM.

Target	dose-dependent thermal stabilisation call
C1ORF43 (UniProt Q9BWL3)	inactive: 0
C19ORF63 (UniProt Q5UCC4)	inactive: 0
C20ORF72 (UniProt Q9BQP7)	inactive: 0
C9ORF126 (UniProt Q8N9R8)	inactive: 0
C6ORF211 (UniProt Q9H993)	inactive: 0
C3ORF21 (UniProt Q8NBI6)	inactive: 0
C20ORF142 (UniProt Q8N6M3)	inactive: 0
C4ORF27 (UniProt Q9NWY4)	inactive: 0
C17ORF37 (UniProt Q9BRT3)	inactive: 0
C19ORF38 (UniProt A8MVS5)	inactive: 0
C21ORF66 (UniProt Q9Y5B6)	inactive: 0
CAB39 (UniProt Q9Y376)	inactive: 0
CARD9 (UniProt Q9H257)	inactive: 0
CANX (UniProt P27824)	inactive: 0
C13ORF34 (UniProt Q6PGQ7)	inactive: 0
C9ORF86 (UniProt Q3YEC7)	inactive: 0
C7ORF30 (UniProt Q96EH3)	inactive: 0
C14ORF149 (UniProt Q96EM0)	inactive: 0
C16ORF14 (UniProt Q9BUT9)	inactive: 0

Target	dose-dependent thermal stabilisation call
C16ORF42 (UniProt Q9UJK0)	inactive: 0
C6ORF203 (UniProt Q9P0P8)	inactive: 0
C19ORF62 (UniProt Q9NWV8)	inactive: 0
C4B (UniProt P0C0L5)	inactive: 0
C1ORF69 (UniProt Q5T440)	inactive: 0
C3ORF39 (UniProt Q8NAT1)	inactive: 0
C3ORF60 (UniProt Q9BU61)	inactive: 0
C9ORF46 (UniProt Q9HBL7)	inactive: 0
CASP10 (UniProt Q92851)	inactive: 0
C15ORF40 (UniProt Q8WUR7)	inactive: 0
C20ORF30 (UniProt Q96A57)	inactive: 0
C9ORF91 (UniProt Q5VZI3)	inactive: 0
C1ORF71 (UniProt Q6PJW8)	inactive: 0
C1GALT1 (UniProt Q9NS00)	inactive: 0
C1ORF198 (UniProt Q9H425)	inactive: 0
CABIN1 (UniProt Q9Y6J0)	inactive: 0
CALR (UniProt P27797)	inactive: 0
C6ORF108 (UniProt O43598)	inactive: 0

Taken from above.
Entry for C1ORF69 (UniProt Q5T440) under dose-dependent thermal stabilisation call: inactive: 0
Entry for C4B (UniProt P0C0L5) under dose-dependent thermal stabilisation call: inactive: 0
Entry for C6ORF203 (UniProt Q9P0P8) under dose-dependent thermal stabilisation call: inactive: 0
